# Experimental data reported in the supplement of paper PMC8728848.
# This is one part of the list.
# B1: Intelectin 1 (Homo sapiens), Q8WWA0 (protein)
# chain: MNQLSFLLFLIATTRGWSTDEANTYFKEWTCSSSPSLPRSCKEIKDECPSAFDGLYFLRTENGVIYQTFCDMTSGGGGWTLVASVHENDMRGKCTVGDRWSSQQGSKAVYPEGDGNWANYNTFGSAEAATSDDYKNPGYYDIQAKDLGIWHVPNKSPMQHWRNSSLLRYRTDTGFLQTLGHNLFGIYQKYPVKYGEGKCWTDNGPVIPVVYDFGDAQKTASYYSPYGQREFTAGFVQFRVFNNERAANALCAGMRVTGCNTEHHCIGGGGYFPEASPQQCGDFSGFDWSGYGTHVGYSSSREITEAAVLLFYR
# Tests used:
# Assay in all cases: glycan array binding signal (z-score within array); higher = stronger binding
# Details in all cases: glycan notation: IUPAC condensed, linker removed
# GlcA(b1-3)Gal = biological target: GlcA(b1-3)Gal
# Method in brief: (§1)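 Glycan array data were curated from 3228 arrays in the Consortium for Functional Glycomics database and kept only where the protein sequence was available. Glycan names were converted to IUPAC-condensed notation, and columns mapping to the same glycan were averaged. The binding signal is a within-array Z-score, averaged across arrays of the same protein sequence at different concentrations or buffers and across linkers. Negative Z-scores can be read as non-binding.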
# GlcA(b1-3)GlcNAc = biological target: GlcA(b1-3)GlcNAc
# Method in brief: as §1
# GlcA(b1-6)Gal = biological target: GlcA(b1-6)Gal
# Method in brief: as §1
# [1] = biological target: GlcNAc(a1-3)Gal(b1-4)GlcNAc
# Method in brief: as §1
# [2] = biological target: GlcNAc(a1-4)Gal(b1-3)GlcNAc
# Method in brief: as §1
# [3] = biological target: GlcNAc(a1-4)Gal(b1-4)GalNAc
# Method in brief: as §1
# [4] = biological target: GlcNAc(a1-4)Gal(b1-4)GlcNAc
# Method in brief: as §1
# [5] = biological target: GlcNAc(a1-4)Gal(b1-4)GlcNAc(b1-3)Gal(b1-4)Glc
# Method in brief: as §1
# [6] = biological target: GlcNAc(a1-4)Gal(b1-4)GlcNAc(b1-3)Gal(b1-4)GlcNAc
# Method in brief: as §1
# [7] = biological target: GlcNAc(a1-4)Gal(b1-4)GlcNAc(b1-3)Gal(b1-4)GlcNAc(b1-3)Gal(b1-4)GlcNAc
# Method in brief: as §1
# [8] = biological target: GlcNAc(a1-4)Gal(b1-4)GlcNAc(b1-3)Gal(b1-4)[Fuc(a1-3)]GlcNAc(b1-3)Gal(b1-4)[Fuc(a1-3)]GlcNAc
# Method in brief: as §1
# [9] = biological target: GlcNAc(a1-6)Gal(b1-4)GlcNAc
# Method in brief: as §1
# [10] = biological target: GlcNAc(b1-2)Gal(b1-3)GalNAc
# Method in brief: as §1
# [11] = biological target: GlcNAc(b1-2)Man(a1-3)[GlcNAc(b1-2)Man(a1-6)]Man(b1-4)GlcNAc(b1-4)GlcNAc
# Method in brief: as §1
# [12] = biological target: GlcNAc(b1-2)Man(a1-3)[GlcNAc(b1-2)Man(a1-6)]Man(b1-4)GlcNAc(b1-4)[Fuc(a1-6)]GlcNAc
# Method in brief: as §1
# [13] = biological target: GlcNAc(b1-2)Man(a1-3)[GlcNAc(b1-4)][GlcNAc(b1-2)Man(a1-6)]Man(b1-4)GlcNAc(b1-4)GlcNAc
# Method in brief: as §1
# [14] = biological target: GlcNAc(b1-2)[GlcNAc(b1-4)]Man(a1-3)[GlcNAc(b1-2)Man(a1-6)]Man(b1-4)GlcNAc(b1-4)GlcNAc
# Method in brief: as §1
# [15] = biological target: GlcNAc(b1-2)[GlcNAc(b1-4)]Man(a1-3)[GlcNAc(b1-4)][GlcNAc(b1-2)Man(a1-6)]Man(b1-4)GlcNAc(b1-4)GlcNAc
# Method in brief: as §1
# [16] = biological target: GlcNAc(b1-2)[GlcNAc(b1-4)]Man(a1-3)[GlcNAc(b1-4)][GlcNAc(b1-2)[GlcNAc(b1-6)]Man(a1-6)]Man(b1-4)GlcNAc(b1-4)GlcNAc
# Method in brief: as §1
# [17] = biological target: GlcNAc(b1-2)[GlcNAc(b1-6)]Man(a1-6)[GlcNAc(b1-2)Man(a1-3)]Man(b1-4)GlcNAc(b1-4)GlcNAc
# Method in brief: as §1
# [18] = biological target: GlcNAc(b1-2)[GlcNAc(b1-6)]Man(a1-6)[GlcNAc(b1-2)Man(a1-3)][GlcNAc(b1-4)]Man(b1-4)GlcNAc(b1-4)GlcNAc
# Method in brief: as §1
# GlcNAc(b1-3)Gal = biological target: GlcNAc(b1-3)Gal
# Method in brief: as §1
# [19] = biological target: GlcNAc(b1-3)Gal(b1-3)GalNAc
# Method in brief: as §1
# GlcNAc(b1-3)Gal(b1-4)Glc = biological target: GlcNAc(b1-3)Gal(b1-4)Glc
# Method in brief: as §1
# [20] = biological target: GlcNAc(b1-3)Gal(b1-4)GlcNAc
# Method in brief: as §1
# [21] = biological target: GlcNAc(b1-3)Gal(b1-4)GlcNAc(b1-3)Gal(b1-4)GlcNAc
# Method in brief: as §1
# GlcNAc(b1-3)GalNAc = biological target: GlcNAc(b1-3)GalNAc
# Method in brief: as §1
# GlcNAc(b1-3)Man = biological target: GlcNAc(b1-3)Man
# Method in brief: as §1
# [22] = biological target: GlcNAc(b1-3)[GlcNAc(b1-4)][GlcNAc(b1-6)]GlcNAc
# Method in brief: as §1
# [23] = biological target: GlcNAc(b1-3)[GlcNAc(b1-6)]Gal(b1-4)GlcNAc
# Method in brief: as §1
# [24] = biological target: GlcNAc(b1-3)[GlcNAc(b1-6)]GalNAc
# Method in brief: as §1
# [25] = biological target: GlcNAc(b1-4)Gal(b1-4)GlcNAc
# Method in brief: as §1
# GlcNAc(b1-4)GlcNAc = biological target: GlcNAc(b1-4)GlcNAc
# Method in brief: as §1
# [26] = biological target: GlcNAc(b1-4)GlcNAc(b1-4)GlcNAc
# Method in brief: as §1
# [27] = biological target: GlcNAc(b1-4)GlcNAc(b1-4)GlcNAc(b1-4)GlcNAc(b1-4)GlcNAc
# Method in brief: as §1
# [28] = biological target: GlcNAc(b1-4)GlcNAc(b1-4)GlcNAc(b1-4)GlcNAc(b1-4)GlcNAc(b1-4)GlcNAc
# Method in brief: as §1
# [29] = biological target: GlcNAc(b1-4)[GlcNAc(b1-6)]GalNAc
# Method in brief: as §1
# [30] = biological target: GlcNAc(b1-6)Gal(b1-4)GlcNAc
# Method in brief: as §1
binder,measurement,setting,value
B1,glycan array binding signal (z-score),GlcA(b1-3)Gal,-0.051
same,glycan array binding signal (z-score),GlcA(b1-3)GlcNAc,0.367
same,glycan array binding signal (z-score),GlcA(b1-6)Gal,-0.654
same,glycan array binding signal (z-score),[1],-0.18
same,glycan array binding signal (z-score),[2],-1.27
same,glycan array binding signal (z-score),[3],-0.567
same,glycan array binding signal (z-score),[4],0.206
same,glycan array binding signal (z-score),[5],-0.339
same,glycan array binding signal (z-score),[6],3.85
same,glycan array binding signal (z-score),[7],0.337
same,glycan array binding signal (z-score),[8],3.27
same,glycan array binding signal (z-score),[9],0.578
same,glycan array binding signal (z-score),[10],0.637
same,glycan array binding signal (z-score),[11],-0.457
same,glycan array binding signal (z-score),[12],0.183
same,glycan array binding signal (z-score),[13],-0.134
same,glycan array binding signal (z-score),[14],-0.518
same,glycan array binding signal (z-score),[15],-0.37
same,glycan array binding signal (z-score),[16],0.236
same,glycan array binding signal (z-score),[17],0.657
same,glycan array binding signal (z-score),[18],0.148
same,glycan array binding signal (z-score),GlcNAc(b1-3)Gal,-0.157
same,glycan array binding signal (z-score),[19],0.322
same,glycan array binding signal (z-score),GlcNAc(b1-3)Gal(b1-4)Glc,-0.656
same,glycan array binding signal (z-score),[20],-1.16
same,glycan array binding signal (z-score),[21],-0.062
same,glycan array binding signal (z-score),GlcNAc(b1-3)GalNAc,1.24
same,glycan array binding signal (z-score),GlcNAc(b1-3)Man,-1.19
same,glycan array binding signal (z-score),[22],-0.034
same,glycan array binding signal (z-score),[23],0.046
same,glycan array binding signal (z-score),[24],-0.008
same,glycan array binding signal (z-score),[25],0.495
same,glycan array binding signal (z-score),GlcNAc(b1-4)GlcNAc,-0.139
same,glycan array binding signal (z-score),[26],0.712
same,glycan array binding signal (z-score),[27],-0.02
same,glycan array binding signal (z-score),[28],-0.987
same,glycan array binding signal (z-score),[29],-0.57
same,glycan array binding signal (z-score),[30],0.154
